According to article PMC10163288:
The list shows a part of the results.

B1: il2ra_site1_1z92_sap_15_mot_HHH_b2_05498_000000253_0001_19_35_H_._HHH_b1_00069_0001_0001500068_0000001_0_0001_af2pred_0001_af2pred_1 (protein)
chain: SEEEEHIRELIEQIPDPELAEAIKKDFEQALERGIPPERVVRALLRAARLDGDPHAEELLEKALR
B2: il2ra_site1_1z92_normal_mot_3d621733409fa4d2bc95fa1761ba6d8e_0001_af2_000000005_0001_1_12_H_._HHH_b2_07461_af2_0001_0000100001_0000001_0_af2pred_0001_af2pred (protein)
chain: SSSSSDNAKKVARLLKELQEAFENGDEEEARRLAEELLELAEENGSKSLARTAELVLRELSSSSS
B3: il2ra_site1_1z92_normal_mot_HHH_b1_07526_000000113_0001_40_57_H_._a65054f6448b340cf30ff5d9204e8553_0001_0001_0000100005_0000001_0 (protein)
chain: DEEEERVKEEIRRKNPRVVRNLEIAERAARRLGAPPEEILKALIRFAEFLGDPEAAELLQEVLEK
B4: il2ra_site2_2erj_sap_28_mot_036bed11a46af16b1bcff1c055f4941a_0001_af2_000000100_0001_34_48_H_._HHH_b2_04017_0001_0000300009_0000001_0_0001 (protein)
chain: SSSSSEEEERLEELLKKIEEAIEKNDFRLANELLAEVIELARELNDDEVLRAVYELMRRVFSSSS
B5: il2ra_site1_1z92_sap_24_mot_HHH_b1_07526_000000113_0001_40_57_H_._HEEHE_2114_af2_0001_0000200014_0000001_0_0001_af2pred_0001_af2pred_1 (protein)
chain: SSSSDDEELQEAMELWEEAARIRDPEEVEELLERAKELAKRANDENILKDIEHFLRLLRKSSSSS
B6: il2ra_site2_3nfp_sap_16_mot_HHH_b2_04619_000000299_0001_40_56_H_._HHH_b1_03268_0001_0000100007_0000001_0_0001 (protein)
chain: SEELEELLKELKEHGDPRLAEELAELLKELKRRGDPEAIRVAWELLRLALEGDPLASEVADALTK
B7: il2ra_site1_3nfp_sap_14_mot_891b8491a18eb46c9ad5c1702b87f9cc_0001_000000120_0001_18_33_H_._HHH_b2_03173_0001_0000100001_0000001_0_0001_af2pred_0001_af2pred (protein)
chain: SSSSDEEEEELEKLLEKLRELLKEGDAHKVSRLVKRILQLARKLEDEEVHREVEELLRRAASSSS
B8: il2ra_site2_2erj_sap_13_mot_12d8a9d2629acc90dc040184e432c6f0_0001_000000022_0001_16_30_H_._HHH_b2_07593_0001_0000800022_0000001_0_0001 (protein)
chain: SSSSDEEEEMLEAMLELVEELLKLGNPEDARIALEFAKALARALNDEEIQRLLEELEEELDSSSS
B9: il2ra_site2_2erj_normal_mot_HHH_b2_07568_000000046_0001_18_34_H_._HHH_b2_05586_af2_0001_0000200004_0000001_0 (protein)
chain: SSSSDEEEARRLYEEAEKLLEEGDPEEALEVLRRASEIAFEAGDFELFAEISELLREVAERSSSS
B10: il2ra_site1_2b5i_sap_18_mot_HHH_b2_04910_000000118_0001_1_19_H_._HHH_b1_00873_0001_0000100003_0000001_0_0001 (protein)
chain: SSSSDELQELFREASELYREGNSEEAEKVLRKAEELAEELNDEKALEDLRFMLEQVERAKSSSSS
B11: il2ra_site2_2erj_sap_25_mot_9bc32e39fd96e64286323717145257bc_0001_000000236_0001_17_32_H_._99435e095d70fd56fcad6a1c72fb48ac_0001_1_af2_0001_0000300011_0000001_0 … (protein)
chain: SSSSSDEEEILEEAKELLERLLKEGDPREAFKVASRFLMALLQLGDKEAAEELLKLAQETSSSSS
B12: il2ra_site1_2b5i_normal_mot_HHH_b1_01574_000000118_0001_1_19_H_._HHH_b1_03987_0001_0000500015_0000001_0_af2pred_dldesign_0_af2pred (protein)
chain: SSSSSSEKDFERRVKLLEEALKEIKDEAARAEITALLKEAEKNKDNVLLRRAMELANSVLSSSSS
B13: il2ra_site1_3nfp_sap_7_mot_HHH_b2_01582_af2_000000000_0001_1_16_H_._HHH_b2_07458_0001_0000500016_0000001_0_0001 (protein)
chain: DLEEEVREILERRLPPRLVELFLDVLKLAERELGDPEEALERLIERLRKLGTPEVAKLLEELLKR
B14: il2ra_site1_1z92_normal_mot_HHH_b1_04261_000000113_0001_39_52_H_._HEEHE_2123_af2_0001_0000100006_0000001_0 (protein)
chain: NAERAAEQLAEFLERTYKVPKVEIEVKNDRVTVTVKGDDELAELALKVAEKLAEAAGDEVELRTE
B15: il2ra_site1_1z92_normal_mot_890837e3a18e6c361ae5da7f11a0c10d_0001_1_000000285_0001_19_34_H_._0f4cfc614b99dbcf159cc5af5b9a7aad_0001_1_0001_0000100005_0000001_0_a … (protein)
chain: SLEERLLALAEKLGIPAADVRRMLARLTAQLGNPRNALTYLYRLAKLALERKDERLIAFLREAAE
B16: il2ra_site2_3nfp_sap_12_mot_HHH_b2_00102_000000046_0001_18_35_H_._HHH_b1_03494_0001_0000300004_0000001_0_0001 (protein)
chain: SSSSSSSIAELISEAIRLRENGNPEEAQEVLEEAIKEAEERGDERAVEYLRAVLLLLEESSSSSS
B17: il2ra_site1_2b5i_normal_mot_HHH_b1_08745_af2_000000166_0001_39_57_H_._HHH_b2_04998_0001_0000300020_0000001_0_af2pred_dldesign_0_af2pred (protein)
chain: SSSSSSGEEIRRLLLEAERLRKAGKEEEAKELLERALELARARKATLAQKFIESALKSLSSSSSS
B18: il2ra_site2_3nfp_normal_mot_HHH_b1_06158_af2_000000274_0001_1_17_H_._HHH_b1_07117_af2_0001_0000700036_0000001_0 (protein)
chain: SSSSDEKEKLEELMEQALDSAEALGDEELKELLEELLEELREKGDPRILLEAYELVREAYESSSS
B19: il2ra_site1_1z92_sap_13_mot_HHH_b2_05238_af2_000000252_0001_38_55_H_._HHH_b2_06678_0001_0000100005_0000001_0_0001 (protein)
chain: SSSSTRELARIIAELISRFKLSLEDMRELDRLALELARRGYSDEEIEELLEELAEELKKGSSSSS

The binders below were run against il2ra, P01589 (assay: yeast display titration).

Apparent Kd, inactive:
B1 no binding seen
B2 no binding seen
B3 no binding seen
B4 no binding seen
B5 no binding seen
B6 no binding seen
B7 no binding seen
B8 no binding seen
B9 no binding seen
B10 no binding seen
B11 no binding seen
B12 no binding seen
B13 no binding seen
B14 no binding seen
B15 no binding seen
B16 no binding seen
B17 no binding seen
B18 no binding seen
B19 no binding seen

2 successive records out of the list so far, quoted:
Apparent Kd, inactive:
B7 no binding seen
B8 no binding seen
